Data on eleven molecules can be found in article PMC6010280.

These are yes or no findings as the source states them, for the method shown. Binding seen in cells or lysates may run through a third protein. A yes stands for co-enrichment or nearness to the bait. Other partners may have been found.

This experiment deals with T1, intein-BHMT (betaine homocysteine S-methyltransferase) (R. norvegicus) (UniProt O09171).
T1 sequence: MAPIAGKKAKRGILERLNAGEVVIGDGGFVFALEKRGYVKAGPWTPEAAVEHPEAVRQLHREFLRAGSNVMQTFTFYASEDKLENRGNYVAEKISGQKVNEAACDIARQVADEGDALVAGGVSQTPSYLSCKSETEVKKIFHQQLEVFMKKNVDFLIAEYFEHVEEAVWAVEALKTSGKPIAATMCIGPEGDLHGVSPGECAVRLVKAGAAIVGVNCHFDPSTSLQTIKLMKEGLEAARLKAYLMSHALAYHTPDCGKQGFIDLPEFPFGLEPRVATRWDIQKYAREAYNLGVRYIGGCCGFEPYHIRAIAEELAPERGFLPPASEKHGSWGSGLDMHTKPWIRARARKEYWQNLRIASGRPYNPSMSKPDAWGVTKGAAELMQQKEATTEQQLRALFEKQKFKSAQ
As to the kind of experiment: affinity purification with mass spectrometry; same intein-BHMT chitin column after the salt gradient; proteins recovered together with BHMT upon intein excision with 30 mM 2-mercaptoethanol, 48 h at 23°C (strong interactors); LC-MS/MS; only the target purified.

B1: Arginine and glutamate-rich protein 1 (protein, UniProt Q5BJT0 1-271)
chain: MGRSRSRSSSRSKHTKSSKHNKKRSRSRSRSRDKERVRKRSKSRESKRNRRRESRSRSRSTNAAASRRERERASSPPDRIDIFGRTVSKRSSLDEKQKREEEEKKAEFERQRKIRQQEIEEKLIEEETARRVEELVAKRVEEELEKRKDEIEREVLRRVEEAKRIMEKQLLEELERQRQAELAAQKAREEEERAKREELERILEENNRKIAEAQAKLAEEQLRIVEEQRKIHEERMKLEQERQRQQKEEQKIILGKGKSRPKLSFSLKTQD
For B1, the binding result is recorded as “binds”.

B2: Usher syndrome type-1C protein-binding protein 1 (protein, UniProt Q3T1I3 1-680)
chain: MSARATRPRSRRGRHPLPGELDPVAESSEEVDTTNGSFETKPELLQEHLGPSLQGPGNRIKEDCDVGSHGVLPLSPEERREPEVEAHQALQEAPLDTGPAEITAPNVYETLKCRLSSLEAVVAAWRRHSLSFSKPVEAEDRDPGAPGSFGNEEEASGPGQQEAAHFIERNAWLRLALGTREEELARTQASLQDAQAENETLQRQVQELEDSLMQLEASPPPSMLRAGRRNSNSSSSGAERRPWAPQDSPMAHPFLQRLRSDSSTQSFGCLSTQRPSPEMYLMEDQMGQLQGNIEKLKCFNRLLLAVLQGYKGRCESLSIKLGKREAEATALHLALQYSKDCEEVYEVLLALKTAGLGAGVGATNGDLQAAEKEASRLLVKKEVAMDVKTPQPSPEGSSVDKPTPEELAAQLHGYVQHLRERWALLKIPPVLDPATAPKPTMPHAEATVQTILEIQPGPTLPQLEKSQIQQDLAATRDGLADLVLRLQLAQREKRGLELREAALRAQGPALRLLLQQLRWEQAHLMGDGSSGGSSEDPSSEEEAGEDRQQHYQGPPALLGGQMGKVWDSETVSQELSASLTRAVDLRAQLQSLRRQLEQMAQKGRTRGAQSAELNRELCKAHSALALAFREAHRKQEEQCRKLEQQMARMQAQQAEELAVLTATARALGDPGAPQPVQTFL
Turning to B2, the binding result is “binds”.

B3: Prostacyclin synthase (protein, UniProt Q62969 1-501)
chain: MSWAALLGLLAVLLLLLLLLSRRRARRPGEPPLDLGSIPWLGHALEFGKDAASFLTRMKEKHGDIFTVLVGGRYVTVLLDPHSYDTVVWDLRTRLDFHPYAIFLMERIFDLQLPNFNPSEEKARMKPTLMHKDLQALTEAMYTNLRTVLLGDSTEGGSGWQEKGLLEFSYSSLLSAGYLTLYGVEASPRTHESQALDRDHSADVFRTFRQLDLMLPKLARGSLSVGDKDHACSVKSRLWKLLSPAGLASRADRSSWLESYLRHLEEMGVSEDMQARALVLQLWATQGNMGPTAFWLLLFLLKNPEALDAVHAELKRIVWQAEKPVLQMTALPQKILDSMPVLDSVLNETLRLTAAPFITREVMADLALPMADRREFSLRRGDRLLLFPFLSPQKDPEIYTEPEVFKYNRFLNPDGSEKKDFYKDGKRLKNYNMPWGAGHNQCLGKSYAINSIKQFVVLLLTHFDLELVSEDTEVPEFDLSRYGFGLMQPEEDVPIRYRTRL
B3: the binding entry is given as “binds”.

B4: Cdc42-interacting protein 4 (protein, UniProt P97531 1-547)
chain: MDWGTELWDQFEVLERHTQWGLDLLDKYVKFVKERVEVEQSYAKQLRSLVKKYLPKRPAKDDPEIKFSQQQSFVQLLQEVNDFAGQRELVAESLGIRVCLELAKYSQEMKQERKMHFQEGRRAQQQLENGFKQLENSKRKFERDCREAEKAAHTAERLDQDINATKADVEKAKQQAHLRNHMAEESKNEYAAQLQRFNRDQAHFYFSQMPQIFDKLQDMDERRATRLGAGYGLLSEAELQVVPIIGKCLEGMKVAAESVDAKNDSKVLIELHKSGFARPGDLEFEDFSQVMNRVPSDSSLGTPDGRPELRAASSRSRAKRWPFGKKNKTVVTEDFSHLPPEQQRKRLQQQLEERNRELQKEEDQREALKKMKDVYEKTPQMGDPASLEPRIAETLGNIERLKLEVQKYEAWLAEAESRVLSNRGDSLSRHTRPPDPPTTAPPDSSSSSNNSGSQDNKESSEEPPSEEGQDTPIYTEFDEDFEEPASPIGQCVAIYHFEGSSEGTVSMSEGEDLSLMEEDKGDGWTRVRRKQGGEGYVPTSYLRVTLN
Take B4: the binding result was “binds”.

B5: Ephrin-B1 (entry P52796) (protein, UniProt P52796 25-345)
chain: ATPLAKNLEPVSWSSLNPKFLSGKGLVIYPKIGDKLDIICPRAEAGRPYEYYKLYLVRPEQAAACSTVLDPNVLVTCNKPQQEIRFTIKFQEFSPNYMGLEFKKYHDYYITSTSNGSLEGLENREGGVCRTRTMKIVMKVGQDPNAVTPEQLTTSRPSKESDNTVKTATQAPGRGSQGDSDGKHETVNQQEKSGPGAGGSGSGDTDSFFNSKVALFAAVGAGCVIFLLIIIFLTVLLLKLRKRHRKHTQQRAAALSLSTLASPKGDSGTAGTEPSDIIIPLRTTENNYCPHYEKVSGDYGHPVYIVQEMPPQSPANIYYKV
As for B5, the binding entry is recorded as “binds”.

B6: Serine/threonine-protein kinase DCLK1 (protein, UniProt O08875 1-433)
chain: MLELIEVNGTPGSQLSTPRSGKSPSPSPTSPGSLRKQRISQHGGSSTSLSSTKVCSSMDENDGPGEEESDEGFQIPATITERYKVGRTIGDGNFAVVKECIERSTAREYALKIIKKSKCRGKEHMIQNEVSILRRVKHPNIVLLIEEMDVPTELYLVMELVKGGDLFDAITSTSKYTERDASGMLYNLASAIKYLHSLNIVHRDIKPENLLVYEHQDGSKSLKLGDFGLATIVDGPLYTVCGTPTYVAPEIIAETGYGLKVDIWAAGVITYILLCGFPPFRGSGDDQEVLFDQILMGQVDFPSPYWDNVSDSAKELINMMLLVNVDQRFSAVQVLEHPWVNDDGLPENEHQLSVAGKIKKHFNTGPKPSSTAAGVSVIATTALDKERQVFRRRRNQDVRGRYKAQPAPPELNSESEDYSPSSSETVRSPNSPF
Turning to B6, the binding result is given as “binds”.

B7: P2X purinoceptor 4 (protein, UniProt P51577 1-388)
chain: MAGCCSVLGSFLFEYDTPRIVLIRSRKVGLMNRAVQLLILAYVIGWVFVWEKGYQETDSVVSSVTTKAKGVAVTNTSQLGFRIWDVADYVIPAQEENSLFIMTNMIVTVNQTQSTCPEIPDKTSICNSDADCTPGSVDTHSSGVATGRCVPFNESVKTCEVAAWCPVENDVGVPTPAFLKAAENFTLLVKNNIWYPKFNFSKRNILPNITTSYLKSCIYNAQTDPFCPIFRLGTIVEDAGHSFQEMAVEGGIMGIQIKWDCNLDRAASLCLPRYSFRRLDTRDLEHNVSPGYNFRFAKYYRDLAGKEQRTLTKAYGIRFDIIVFGKAGKFDIIPTMINVGSGLALLGVATVLCDVIVLYCMKKKYYYRDKKYKYVEDYEQGLSGEMNQ
Regarding B7, the binding result is “binds”.

B8: Hsp90 co-chaperone Cdc37-like 1 (protein, UniProt Q5XIC3 1-335)
chain: MEQPWPPPGPWSFPRTGGETEEESDLDVSPSSSHYSPVPDGGAQMYSHGIELACQRQKEFVKSSVACKWNLAEAQQKLGSLALHNSESLDQEHAKAQTAVSELRQREEEWRQKEEALVQRERTCLWNVDAISKDVFNKSFINQDKRKTEDEDKSQSFMQKYEQKIRHFGMLSRWDDSQRFLSDHPYLVCEETAKYLILWCFHLEAEQKGALMEQIAHQAVVMQFIMEMAKNCNVDPRGCFRLFFQKAKAEEEGYFEAFKNELEAFKARVRLYAQSQSFAPVTVENHAPHSGVGCIGSAEPLPQNPDSLQCCPPAPLCSVDSVVHKEDDDRMMDTV
Take B8: the binding entry was “binds”.

B9: Uncharacterized protein C8orf76 homolog (protein, UniProt Q5BK24 1-374)
chain: METGCWVLGGEFEDSVFEQKPERQPEPPSSYGAKLCEPQWFYEETESSNDIEVLTLKKFRGDLAYRRQEYEKALQEYSSISKQLPSTNFAMKRDVQEGQARCLAHLGRHEEALEIAVDLESKATNTEHLTSALSLHLAIFSRRQSLEKTILYLQKLISLHPLNPWSWCKLAEAYLSPGPDLPALGESPQGQKSSASSDKAVRASSVHSGTGCLPFPAPSPDSAVFSVEASGCDTQQDMQNCLAARRAAAQTEAQRKACAALIRARLLLQLAQSQQTSFALEKNLRTQQEIAQKVKEFSFREDTLLLMEEAMGEDIVPERIKEELHPEVQCVGPAALTASVAASSKEFEDKWFRKVRDHFSPLEKQSHVDIQIMA
Consider B9, for which the binding result was “binds”.

B10: RGD1562161 protein (protein, UniProt B2GUW9 1-744)
chain: MARSRSRSPRWKQRSLSPQSRNFEYHEERHFHGHYDPEYRNDPQRPFTWRMDDEKHGQNKPRIPPRVNSYYRSYENRSPSPNVKPVEKFDTYKPHQEYFPGRGDDDRRSQYMPTYTENAAAYMEHERDCYIPTVQGRYTDEHRGRGNGRGGKPPQMLLGMPPQMSLADSFRFKETWHEDELRHQRVPEESFPQSPRRGSEDFDTRNPFQKRYPEDHDFRKYGYISKRPTDAARYENREPARNPKWKPEHSFLPFQEKAEDWSFGTQSYRYTEREYPERSAATRVSYDYRHKHHKLSDGEQDFADGRFQKYLKEEDRKYSSLKIPGNRESDCFSTIRGRETENEQINGPFYLYQKDCVSYTHTNIKETDLASCNDKWKKKTNKEDCRKENASSSKQLDTGPKPEDKCYSLTKKKSLTIKVDRNKMDTFRSTRYSAERQTSHDLVAIGSRNDNFHPVFQHLDSTQNPEDKPTEEFAQEIITIIHKVKADSFVTPEITLHERFSRIKNKMYADFNQMQSNSDPEFHRRIDMSLADLQNKYTMVYEPDKTVVKVIEPNDLRHDIERRRKERLQNEDENIFHMASSTERIHQSSSFPKVKTIRADGFQKPPHFIKSNFRKFIQKPYINYTMQRKDAITQKIFRIEENHQNRRGSKGPFKNFLGGRFQPNYKSHLVQKSLYIQAKYQRLRFAGPRGFITNKFRNRFLRKKKEYPILPRTNHLELLQMESTLYEDLTEHLILSGIGLTLRH
Consider B10, for which the binding entry was “binds”.

B11: Connector enhancer of kinase suppressor of ras 3 (protein, UniProt Q5SGD7 1-555)
chain: MEPVTKWSPKQVVDWTRGLDDCLQPYVHKFEREKIDGEQLLKISHQDLEELGVTRIGHQELVLEAVDLLCALNYGLETDNMKNLVLKLRASSHNLQNYISSRRKSPAYDGNTSRKPPNEFLTSVVELIGAAKALLAWLDRAPFTGITDLSVTKNKIIQLCLDLTTAVQKDCLVAEMEDKVLNVVKVLNGICDKMMHSTTDPVMSQCACLEEVHLPNVRPGEGLGMYIKSTYDGLHVITGTTENSPADRSQKIHAGDEVIQVNRQTVVGWQLKNLVKKLRENPTGVVLLLKKRPTGSFSFTPAPLKNLRWKPPLVQTSPPPTTTQSPESTMDASLKKEKPAILDLYIPPPPAVPYSPRDENVSFSYRGHTKSKQPLPGRKGSESPNSFLDQESQRRRFTITDSDQLPGYSVGTNILPIKMRGKTPSYGKPRPLSMPADGNWMGIVDPFAKPRGHGRKGEDALCRYFSNERITPIIEESASPVYRFSRPLTERHLVRGADYIRGSRCYINSDLHSSATIPFQEEGPKKKSASSSAKASSGEPSLLVSWLTRLKLLTH
Consider B11, for which the binding entry is listed as “binds”.
